# Repeats are few or missing, and single values can be far off.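 All cells are established human bladder cancer lines, one of them grown from a patient-derived xenograft. Viability was read by a luminescent ATP assay as percent inhibition versus vehicle over a seven-point dilution series; the paper calls scores above 59 very active, 30–59 active, 21–29 semi-active, 9–20 low active and below 9 inactive.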
# Assays:
# Assay in all cases: drug sensitivity score DSS3 (score 0-100); higher = more sensitive; extreme values may be limits of the assay
# Conditions in all cases: culture: 3D, ultra-low attachment; treatment time: 5 days
# 5637 = system: 5637
# BC8149 = system: BC8149
# J82 = system: J82
# SCaBER = system: SCaBER
# SW780 = system: SW780
# T-24 = system: T-24
# TCCSUP = system: TCCSUP
# UM-UC-12 = system: UM-UC-12
# UM-UC-14 = system: UM-UC-14
# UM-UC-15 = system: UM-UC-15
# UM-UC-17 = system: UM-UC-17
# UM-UC-18 = system: UM-UC-18
# UM-UC-1 = system: UM-UC-1
# UM-UC-3 = system: UM-UC-3
# UM-UC-5 = system: UM-UC-5
# UM-UC-6 = system: UM-UC-6
# UM-UC-9 = system: UM-UC-9
SMILES,drug sensitivity score DSS3 5637,drug sensitivity score DSS3 (BC8149),drug sensitivity score DSS3 (J82),drug sensitivity score DSS3 (SCaBER),drug sensitivity score DSS3 (SW780),drug sensitivity score DSS3 (T-24),drug sensitivity score DSS3 (TCCSUP),drug sensitivity score DSS3 (UM-UC-12),drug sensitivity score DSS3 (UM-UC-14),drug sensitivity score DSS3 (UM-UC-15),drug sensitivity score DSS3 (UM-UC-17),drug sensitivity score DSS3 (UM-UC-18),drug sensitivity score DSS3 (UM-UC-1),drug sensitivity score DSS3 (UM-UC-3),drug sensitivity score DSS3 (UM-UC-5),drug sensitivity score DSS3 (UM-UC-6),drug sensitivity score DSS3 (UM-UC-9)
CC(C(=O)O)c1ccc2c(c1)[nH]c1ccc(Cl)cc12 (stereo not drawn) [Carprofen] (max dose 10000 nM),0,0,0,0,0,0,0,0,0,0,0,0,0,0,0,0,0
COc1cc2c(Oc3ccc4[nH]c(C)cc4c3F)ncnc2cc1OCCCN1CCCC1 [Cediranib] (max dose 10000 nM),0,0,0,0,0,0,0.619,13.4,7.65,0,0,0,10.4,0,10.7,0,6.67
Cc1ccc(-c2cc(C(F)(F)F)nn2-c2ccc(S(N)(=O)=O)cc2)cc1 [Celecoxib] (max dose 10000 nM),4.61,0.644,0,0,0,0,5.92,0,0.717,0,0,0,0,0,0,0,0
CCN(CC)CCCC(C)Nc1ccnc2cc(Cl)ccc12 (stereo not drawn) [Chloroquine Phosphate] (max dose 10000 nM),0,0,0,0,0,0,0,0,0,0,0,0,0,0,0,0,0
Cc1cc(O)c2c(c1)C(=O)c1cccc(O)c1C2=O [Chrysophanic Acid] (max dose 10000 nM),3.29,0,0,0.0731,0,0,3.36,0.703,0,0,0,5.27,0.582,2.15,0,0,0
Nc1nc(Cl)nc2c1ncn2[C@H]1C[C@H](O)[C@@H](CO)O1 [Cladribine] (max dose 10000 nM),16.9,8.64,18.2,0.805,0.591,1.6,28.6,0.0566,3.17,0,18.2,27.1,10,4.05,0,7.88,3.24
Nc1nc(Cl)nc2c1ncn2[C@@H]1O[C@H](CO)[C@@H](O)[C@@H]1F [Clofarabine] (max dose 10000 nM),32.1,29.9,19.2,9.75,2.54,1.4,42,0,9.94,0,26.3,45.9,15.8,10.5,3.04,12.6,12.6
COc1ccc(/C=C\c2cc(OC)c(OC)c(OC)c2)cc1O [Combretastatin A4] (max dose 10000 nM),40.3,33.9,0,0,6.9e-05,0,29.1,34.7,7.92,0,19.6,0,15.8,30,0,5.92,5.29
COc1c(OCCCN2CCOCC2)ccc2c1N=C(NC(=O)c1cnc(N)nc1)N1CCN=C21 [Copanlisib] (max dose 2000 nM),0,0,0.206,0,0,5.58,0.0364,32.3,21,0,0,3.23,19.6,8.27,40.4,14.7,0
c1c2c(cc3c1OCO3)-c1cc3ccc4c(c3c[n+]1CC2)OCO4 [Coptisine chloride] (max dose 10000 nM),0,0,0,0,0,0,0,0,0,0,0,0,0.255,0,0,0,0
CCCCCCOC(=O)c1cc(=O)c(O)c2c(O)c(O)c(OC)cc2c1 [Cu-CPT22] (max dose 10000 nM),0,0.0355,0,0,0,0,0,0.911,0,0,0,0,0,0,0,0.0285,0.0886
"O=P1(N(CCCl)CCCl)NCCCO1 (stereo not drawn) [Cyclophosphamide, Cyclophosphamide Monohydrate] (max dose 10000 nM)",0,0,0,0,0,0,0,0,0,0.595,0,0,0,0,0,0,0
C[C@H](NC(=O)Cc1cc(F)cc(F)c1)C(=O)N[C@H](C(=O)OC(C)(C)C)c1ccccc1 [DAPT (GSI-IX)] (max dose 10000 nM),4,6.22,0,1.22,0,0.971,5.24,0.585,1.51,0,0.647,0.995,2.63,1,0.217,0,2.33
CNC(=O)c1cc(Oc2ccc(NC(=O)Nc3cc(C(C)(C)C)nn3-c3ccc4ncccc4c3)c(F)c2)ccn1 [DCC-2036 (Rebastinib)] (max dose 10000 nM),13.9,42.1,9.34,30.1,6.39,11.3,42.8,22.3,17.7,0,8.72,22.8,21.6,29.7,10.6,12.3,0
CC(C)(C)c1nc(-c2cccc(NS(=O)(=O)c3c(F)cccc3F)c2F)c(-c2ccnc(N)n2)s1 [Dabrafenib] (max dose 10000 nM),2.71,1.05,0,1.2,0,0.27,3.24,0,0,0.103,0,0,0,0.947,0,0,0
CN(C)NC(=O)CCC(=O)O [Daminozide] (max dose 10000 nM),0,0,0,0,0,0.334,0,0,0.888,0,0,0,0.0873,0,0,0.177,0
COc1c(-c2ccc3cc(NS(C)(=O)=O)ccc3c2)cc(-n2ccc(=O)[nH]c2=O)cc1C(C)(C)C [Dasabuvir(ABT-333)] (max dose 10000 nM),0,0,0,0,0,0,0,0,0,0.19,0,0,0,0.0132,0,0,0
Nc1ncn([C@H]2C[C@H](O)[C@@H](CO)O2)c(=O)n1 [Decitabine] (max dose 10000 nM),1.34,0,0.649,0,0,0.529,7.07,0,1.16,0,2.51,0,0.843,0,0,0,0
CCC[C@H](NC(=O)/C(C#N)=C/c1cccc(Br)n1)c1ccccc1 [Degrasyn (WP1130)] (max dose 10000 nM),0.365,3.15,0,2.41,0.0461,0,0.835,1.01,0.151,0,6.18,0,0,3.39,2.02,0,0
C[C@@H]1C[C@H]2[C@@H]3CCC4=CC(=O)C=C[C@]4(C)[C@@]3(F)[C@@H](O)C[C@]2(C)[C@@]1(O)C(=O)CO [Dexamethasone (DHAP)] (max dose 10000 nM),0,0,0,0,0,0,0,0,0,0,0,0,0,16.1,0,0,0
CCc1cnn2c(NCc3ccc[n+]([O-])c3)cc(N3CCCC[C@H]3CCO)nc12 [Dinaciclib] (max dose 10000 nM),58,73,32.3,73.1,45.5,40.8,59.4,46.5,41.8,45.1,58.3,56.5,52.8,31.7,52.6,54.1,18.4
CCN(CC)C(=S)SSC(=S)N(CC)CC [Disulfiram] (max dose 10000 nM),0,0,0,0,0,0,0,0,0,0,0,0,0,0,0,0,0
CC(=O)O[C@@]12CO[C@@H]1C[C@H](O)[C@@]1(C)C(=O)[C@H](O)C3=C(C)[C@@H](OC(=O)[C@H](O)[C@@H](NC(=O)OC(C)(C)C)c4ccccc4)C[C@@](O)([C@@H](OC(=O)c4ccccc4)[C@H]21)C3(C)C [Docetaxel] (max dose 10000 nM),80.5,50.5,12.3,34.7,62.6,0,82.4,49.4,64.1,0,78.9,42.6,55.9,28.4,0,66.4,19.9
C=C1/C(=C\C=C2/CCC[C@]3(C)[C@@H]([C@H](C)/C=C/[C@H](C)C(C)C)CC[C@@H]23)C[C@@H](O)C[C@@H]1O [Doxercalciferol] (max dose 10000 nM),0,0,0,0,0,0,0,0,0,0,0,0,0,0,0,0,0

# Not a retest: entries from further up.
SMILES,drug sensitivity score DSS3 5637,drug sensitivity score DSS3 (BC8149),drug sensitivity score DSS3 (J82),drug sensitivity score DSS3 (SCaBER),drug sensitivity score DSS3 (SW780),drug sensitivity score DSS3 (T-24),drug sensitivity score DSS3 (TCCSUP),drug sensitivity score DSS3 (UM-UC-12),drug sensitivity score DSS3 (UM-UC-14),drug sensitivity score DSS3 (UM-UC-15),drug sensitivity score DSS3 (UM-UC-17),drug sensitivity score DSS3 (UM-UC-18),drug sensitivity score DSS3 (UM-UC-1),drug sensitivity score DSS3 (UM-UC-3),drug sensitivity score DSS3 (UM-UC-5),drug sensitivity score DSS3 (UM-UC-6),drug sensitivity score DSS3 (UM-UC-9)
Cc1cc(O)c2c(c1)C(=O)c1cccc(O)c1C2=O [Chrysophanic Acid] (max dose 10000 nM),3.29,0,0,0.0731,0,0,3.36,0.703,0,0,0,5.27,0.582,2.15,0,0,0
Nc1nc(Cl)nc2c1ncn2[C@H]1C[C@H](O)[C@@H](CO)O1 [Cladribine] (max dose 10000 nM),16.9,8.64,18.2,0.805,0.591,1.6,28.6,0.0566,3.17,0,18.2,27.1,10,4.05,0,7.88,3.24
